Results are given in words; binding and its absence hold for the method and conditions named.
Columns and labels:
Human profilin-1 (human) [1] = target: Human profilin-1 (human) (UniProt P07737); assay: dynamic light scattering; 0.8 mg mL^-1 profilin-1 in 20 mM HCl pH 1.7, 25 °C; acid-unfolded protein; both purified
Human profilin-1 (human) [2] = target: Human profilin-1 (human) (UniProt P07737); assay: dynamic light scattering; 0.8 mg mL^-1 profilin-1 in G-buffer containing 8 M urea, 25 °C; urea-unfolded protein; both purified
Human profilin-1 (human) [3] = target: Human profilin-1 (human) (UniProt P07737); assay: dynamic light scattering; 0.8 mg mL^-1 profilin-1 in G-buffer (20 mM Tris/HCl, 2 mM DTT, 0.1 mM CaCl2, 0.2 mM NaN3, pH 7.3), 25 °C; native protein; hydrodynamic diameter compared with those expected for monomer, dimer and tetramer; both purified

The chains behind the UniProt entries cited, without tags or fusion partners. Residues count along the entry.
UniProt P07737, residues 2-140: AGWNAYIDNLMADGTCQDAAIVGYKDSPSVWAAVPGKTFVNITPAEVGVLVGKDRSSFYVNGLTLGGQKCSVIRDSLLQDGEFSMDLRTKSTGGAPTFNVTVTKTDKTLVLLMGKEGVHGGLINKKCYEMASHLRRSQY

Measured: binding

Human profilin-1 (from UniProt P07737 2-140) (other; other documents disagree on this pair)
no binding (tested: 0.8 mg mL^-1): all assays above
